In US20060051395A1 (AFFINERGY, published 2006) one finds binding data, which are given here for 25 molecules.

These are yes or no findings as the source states them, for the method shown. Some binding calls cover weakened binding; strength is not graded here.

T1: Bone Morphogenic Protein 2 (BMP-2) (UniProt P12643)
T1 sequence (looked up): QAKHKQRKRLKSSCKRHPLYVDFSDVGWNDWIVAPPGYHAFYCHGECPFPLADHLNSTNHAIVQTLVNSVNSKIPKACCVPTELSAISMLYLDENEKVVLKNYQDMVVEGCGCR

B1: AP02-60 (peptide)
peptide: SSFEPLRFPLKGVPVSR
B2: AP02-04 (peptide)
peptide: SSGGGGAWESWRGLSGVELSR
B3: AP02-03 (peptide)
peptide: SSEGRGGWNSWEAFRELVVSR
B4: AP02-46 (peptide)
peptide: SSGADFGYGSWVSFSALSASR
B5: AP02-09 (peptide)
peptide: SSPPKHAWGSFDALGGQVVSR
B6: AP02-17 (peptide)
peptide: SSSKVAPSGEWRSFATLEVSR
B7: AP02-55 (peptide)
peptide: SSSSGAVSSFESLSGSVVSSR
B8: AP02-56 (peptide)
peptide: SREGVAWEAFGALSSFAADSR
B9: AP02-13 (peptide)
peptide: SSGGGGGGEGFSSLSGNGRSR
B10: AP02-14 (peptide)
peptide: SSTGGGSWEEFKAMTPSWTSR
B11: AP02-18 (peptide)
peptide: SSEAGRGWEGFKALEGYQVSR
B12: AP02-07 (peptide)
peptide: SSVEGSAWSAFKSLSSEGVSR
B13: AP02-12 (peptide)
peptide: SSSPGGGSGGWDAFYSLVGSR
B14: AP02-10 (peptide)
peptide: SSERGVGWEVFLAMEGARMSR
B15: AP02-16 (peptide)
peptide: SSGVTQESASWSSFRTLAVSR
B16: AP02-57 (peptide)
peptide: SSWGLASEASFFSFSALSSSR
B17: AP02-05 (peptide)
peptide: SRNVEGSWESFAGLSHVRESR
B18: AP02-15 (peptide)
peptide: SSEGSGLWDSFSSLSVHEVSR
B19: AP02-47 (peptide)
peptide: SRGEASGWEAFSALEAAVVSR
B20: AP02-08 (peptide)
peptide: SRVEGGAWQALAGLTVERVSR
B21: AP02-58 (peptide)
peptide: SREGAAWDSFFALSGGSAASR
B22: AP02-01 (peptide)
peptide: SSAPLTESEAWRGFSKLEVSR
B23: AP02-11 (peptide)
peptide: SSSSSGTWQAFTGLSGERVSR
B24: AP02-02 (peptide)
peptide: SSSMPVGWDSWRGLEWSDRSR
B25: AP02-06 (peptide)
peptide: SREDGGRWESFLGLSAVEVSR

This test concerns the target T1, Bone Morphogenic Protein 2 (BMP-2). The experiment in a line: phage ELISA on biotinylated BMP-2 on streptavidin plates, anti-M13-HRP. (In general: ELISA stands for enzyme-linked immunosorbent assay.)
Turning to B1, the binding result is listed as “binds”.
In the case of B2 it was “binds”.
Take B3: the binding result was “binds”.
As to B4, the binding entry is reported as “binds”.
The entry for B5 is “binds”; for B6 it is “binds”; for B7 it is “binds”.
Consider B8, for which the binding result is “binds”.
The entry for B9 is “binds”; for B10 it is “binds”; for B11 it is “binds”.
Take B12: the binding result was “binds”.
Consider B13, for which the binding result is “binds”.
In the case of B14 it was “binds”.
Take B15: the binding result was “binds”.
The entry for B16 is “binds”; for B17 it is “binds”.
In the case of B18 it was “binds”; in that of B19, “binds”; in that of B20, “binds”.
In the case of B21, the binding result is “binds”.
In the case of B22 it was “binds”.
As for B23, the binding result is listed as “binds”.
As to B24, the binding result is “binds”.
On to B25, for which the binding result was “binds”.
